Test results published in patent US11571446B2, “Gut microbiota and treatment of cancer” (Sanford Burnham Prebys Medical Discovery Institute, priority 2016, dated 2023).

Test system: gut microbiota
Assay: Gut microbiota composition after mucin, inulin or anti-CTLA-4 treatment
Format: in vivo, mouse
[1] = mucin and inulin fed WT and Rnf5 mice

## inulin
Fed mice
  Lactobacillus spp., Ruminococaceae and Lachnospiriaceae in gut microbiota: suppressed large portions
[1]
  abundance of Bacteroides spp., P. goldsteinii, P. merdae, P. canis, P. koreensis, unclassified Pedobacter and O. sinus: enrichment
  abundance of S. hydroxybenzoicus, Blautia spp. and J. ignava: reduced abundance
